No constants are given. Whether binding was seen depends on the method and setting. A result given as binding can be weak or reduced; the word gives no strength.
Experiments:
PaTIP1-1 (P. armeniaca) = experiment: two-hybrid; Matchmaker Gold Yeast Two Hybrid System (Clontech); PaAQP baits in pGBKT7, predicted partners as prey in pGADT7, cotransformed into yeast strain Gold Y2H; SD/-Leu/-Trp/-His/-Ade with 100 uM aureobasidin A and 3 mg/mL X-alpha-Gal, 30°C
PaPIP2-1 (P. armeniaca) = experiment: as above

Row | binding (PaTIP1-1 (P. armeniaca)) | binding (PaPIP2-1 (P. armeniaca)) | Binder
1 | binds |  | TSPO (protein, UniProt O82245 1-196) MDSQDIRYRGGDDRDAATTAMAETERKSADDNKGKRDQKRAMAKRGLKSLTVAVAAPVLVTLFATYFLGTSDGYGNRAKSSSWIPPLWLLHTTCLASSGLMGLAAWLVWVDGGFHKKPNALYLYLAQFLLCLVWDPVTFRVGSGVAGLAVWLGQSAALFGCYKAFNEISPVAGNLVKPCLAWAAFVAAVNVKLAVA
2 |  | binds | phosphatidylinositol-specific phospholipase C AtPLC1 (ATHATPLC1G) (protein, UniProt Q39032 1-561) MKESFKVCFCCVRNFKVKSSEPPEEIKNLFHDYSQDDRMSADEMLRFVIQVQGETHADINYVKDIFHRLKHHGVFHPRGIHLEGFYRYLLSDFNSPLPLTREVWQDMNQPLSHYFLYTGHNSYLTGNQLNSNSSIEPIVKALRNGVRVIELDLWPNSSGKEAEVRHGGTLTSREDLQKCLNVVKENAFQVSAYPVVLTLEDHLTPILQKKVAKMVSKTFGGSLFQCTDETTECFPSPESLKNKILISTKPPKEYLQTQISKGSTTDESTRAKKISDAEEQVQEEDEESVAIEYRDLISIHAGNRKGGLKNCLNGDPNRVIRLSMSEQWLETLAKTRGPDLVKFTQRNLLRIFPKTTRFDSSNYDPLVGWIHGAQMVAFNMQSHGRYLWMMQGMFKANGGCGYVKKPDVLLSNGPEGEIFDPCSQNLPIKTTLKVKIYTGEGWNMDFPLDHFDRYSPPDFYAKVGIAGVPLDTASYRTEIDKDEWFPIWDKEFEFPLRVPELSLLCITVKDYDSNTQNDFAGQTCFPLSEVRPGIRAVRLHDRAGEVYKHVRLLMRFVLEPR
